Some of the results follow.
Assays:
Experiment in all cases: glycan array binding signal (z-score within array); higher = stronger binding
Settings in all cases: glycan notation: IUPAC condensed, linker removed
[1] = molecular target: Gal3S(b1-3)[Fuc(a1-4)]GlcNAc
Procedure, shortened: (§1)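 Glycan array binding is given as a within-array Z-score, which can be read as non-binding when negative. The arrays, 3228 of them, came from the Consortium for Functional Glycomics database and were retained only where the protein sequence was available. Z-scores were averaged across arrays of the same protein sequence at different concentrations or buffers and across linkers.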

[2] = molecular target: Gal3S(b1-4)Glc
Procedure, shortened: as §1

[3] = molecular target: Gal3S(b1-4)Glc6S
Procedure, shortened: as §1

[4] = molecular target: Gal3S(b1-4)GlcNAc
Procedure, shortened: as §1

[5] = molecular target: Gal3S(b1-4)[Fuc(a1-3)]Glc6S
Procedure, shortened: as §1

[6] = molecular target: Gal3S(b1-4)[Fuc(a1-3)]GlcNAc
Procedure, shortened: as §1

[7] = molecular target: Gal3S(b1-4)[Fuc(a1-3)]GlcNAc6S
Procedure, shortened: as §1

[8] = molecular target: Gal3S4S(b1-4)GlcNAc
Procedure, shortened: as §1

[9] = molecular target: Gal3S6S(b1-4)GlcNAc
Procedure, shortened: as §1

[10] = molecular target: Gal3S6S(b1-4)GlcNAc6S
Procedure, shortened: as §1

[11] = molecular target: Gal4S(b1-4)GlcNAc
Procedure, shortened: as §1

[12] = molecular target: Gal4S6S(b1-4)GlcNAc
Procedure, shortened: as §1

[13] = molecular target: Gal6P(b1-4)GlcNAc
Procedure, shortened: as §1

[14] = molecular target: Gal6S(b1-3)GlcNAc
Procedure, shortened: as §1

[15] = molecular target: Gal6S(b1-3)GlcNAc6S
Procedure, shortened: as §1

[16] = molecular target: Gal6S(b1-4)Glc
Procedure, shortened: as §1

[17] = molecular target: Gal6S(b1-4)Glc6S
Procedure, shortened: as §1

[18] = molecular target: Gal6S(b1-4)GlcNAc
Procedure, shortened: as §1

[19] = molecular target: Gal6S(b1-4)GlcNAc6S
Procedure, shortened: as §1

[20] = molecular target: GalNAc(a1-3)Gal
Procedure, shortened: as §1

[21] = molecular target: GalNAc(a1-3)GalNAc
Procedure, shortened: as §1

[22] = molecular target: GalNAc(a1-3)GalNAc(b1-3)Gal(a1-4)Gal(b1-4)Glc
Procedure, shortened: as §1

[23] = molecular target: GalNAc(a1-3)GalNAc(b1-3)Gal(a1-4)Gal(b1-4)GlcNAc
Procedure, shortened: as §1

[24] = molecular target: GalNAc(b1-3)Gal
Procedure, shortened: as §1

[25] = molecular target: GalNAc(b1-3)Gal(a1-4)Gal(b1-4)GlcNAc
Procedure, shortened: as §1

[26] = molecular target: GalNAc(b1-3)Gal(a1-4)Gal(b1-4)GlcNAc(b1-3)Gal(b1-4)Glc
Procedure, shortened: as §1

[27] = molecular target: GalNAc(b1-3)Gal(a1-6)Gal(b1-4)Glc
Procedure, shortened: as §1

[28] = molecular target: GalNAc(b1-3)GalNAc
Procedure, shortened: as §1

[29] = molecular target: GalNAc(b1-3)GlcNAc
Procedure, shortened: as §1

[30] = molecular target: GalNAc(b1-4)Gal(b1-4)Glc
Procedure, shortened: as §1

[31] = molecular target: GalNAc(b1-4)GlcNAc
Procedure, shortened: as §1

[32] = molecular target: GalNAc(b1-4)GlcNAc(b1-2)Man
Procedure, shortened: as §1

[33] = molecular target: GalNAc(b1-4)GlcNAc(b1-2)Man(a1-3)[GalNAc(b1-4)GlcNAc(b1-2)Man(a1-6)]Man(b1-4)GlcNAc(b1-4)GlcNAc
Procedure, shortened: as §1

[34] = molecular target: GalNAc(b1-4)GlcNAc(b1-3)GalNAc(b1-4)GlcNAc
Procedure, shortened: as §1

[35] = molecular target: GalNAc(b1-4)GlcNAc6S
Procedure, shortened: as §1

[36] = molecular target: GalNAc(b1-6)GalNAc
Procedure, shortened: as §1

[37] = molecular target: GalNAc3S(b1-4)GlcNAc
Procedure, shortened: as §1

[38] = molecular target: GalNAc3S(b1-4)GlcNAc3S
Procedure, shortened: as §1

[39] = molecular target: GalNAc3S(b1-4)[Fuc(a1-3)]GlcNAc
Procedure, shortened: as §1

[40] = molecular target: GalNAc4S6S(b1-4)GlcNAc
Procedure, shortened: as §1

[41] = molecular target: GalNAc6S(b1-4)GlcNAc
Procedure, shortened: as §1

[42] = molecular target: Glc(a1-4)Glc
Procedure, shortened: as §1

[43] = molecular target: Glc(a1-4)Glc(a1-4)Glc(a1-4)Glc
Procedure, shortened: as §1

[44] = molecular target: Glc(a1-6)Glc(a1-6)Glc
Procedure, shortened: as §1

[45] = molecular target: Glc(a1-6)Glc(a1-6)Glc(a1-6)Glc
Procedure, shortened: as §1

B1: Ovorubin (Pomacea canaliculata), J7I2T6 (protein)
chain: MFVATSLLLAIATLVVRASPHNYLIMDIEPPKSVSERDILNLLSPLQVKHSFRVTGSTRLLIVIRLDAQSYEKLDEITVPGKVEVIPAVNMADTMERCGVSWPRVELTDDNVTLFESESTLTDVTKEQLKAMLIGYGEHMSGLLQAHRFEYYQAAGATPHRHFVFVNSVPDEIEVFGREGVDIWGGPGEFVVKPQYVTRI
glycan array binding signal (z-score) [1]: -0.587 | glycan array binding signal (z-score) [2]: -0.766 | glycan array binding signal (z-score) [3]: 0.882 | glycan array binding signal (z-score) [4]: -0.423 | glycan array binding signal (z-score) [5]: 3.72 | glycan array binding signal (z-score) [6]: 0.624 | glycan array binding signal (z-score) [7]: 1.26 | glycan array binding signal (z-score) [8]: 9.33 | glycan array binding signal (z-score) [9]: 4.31 | glycan array binding signal (z-score) [10]: 0.237 | glycan array binding signal (z-score) [11]: 0.112 | glycan array binding signal (z-score) [12]: 2.17 | glycan array binding signal (z-score) [13]: -0.405 | glycan array binding signal (z-score) [14]: -0.856 | glycan array binding signal (z-score) [15]: 1.01 | glycan array binding signal (z-score) [16]: 0.015 | glycan array binding signal (z-score) [17]: 3.93 | glycan array binding signal (z-score) [18]: -0.758 | glycan array binding signal (z-score) [19]: -0.558 | glycan array binding signal (z-score) [20]: -0.629 | glycan array binding signal (z-score) [21]: -0.067 | glycan array binding signal (z-score) [22]: -0.475 | glycan array binding signal (z-score) [23]: -0.17 | glycan array binding signal (z-score) [24]: -0.276 | glycan array binding signal (z-score) [25]: 0.217 | glycan array binding signal (z-score) [26]: -0.665 | glycan array binding signal (z-score) [27]: -0.472 | glycan array binding signal (z-score) [28]: -0.073 | glycan array binding signal (z-score) [29]: 0.328 | glycan array binding signal (z-score) [30]: -0.307 | glycan array binding signal (z-score) [31]: 0.635 | glycan array binding signal (z-score) [32]: -0.618 | glycan array binding signal (z-score) [33]: -0.493 | glycan array binding signal (z-score) [34]: 0.257 | glycan array binding signal (z-score) [35]: -0.066 | glycan array binding signal (z-score) [36]: -0.284 | glycan array binding signal (z-score) [37]: -0.338 | glycan array binding signal (z-score) [38]: -0.163 | glycan array binding signal (z-score) [39]: -1.29 | glycan array binding signal (z-score) [40]: -0.483 | glycan array binding signal (z-score) [41]: -0.335 | glycan array binding signal (z-score) [42]: -0.045 | glycan array binding signal (z-score) [43]: 0.075 | glycan array binding signal (z-score) [44]: -0.57 | glycan array binding signal (z-score) [45]: -0.19

— the supplement of paper PMC8728848
